Source: PMC12785156

Target: T1, AtHPPD-GFP (Arabidopsis thaliana) (UniProt P93836)
T1 sequence: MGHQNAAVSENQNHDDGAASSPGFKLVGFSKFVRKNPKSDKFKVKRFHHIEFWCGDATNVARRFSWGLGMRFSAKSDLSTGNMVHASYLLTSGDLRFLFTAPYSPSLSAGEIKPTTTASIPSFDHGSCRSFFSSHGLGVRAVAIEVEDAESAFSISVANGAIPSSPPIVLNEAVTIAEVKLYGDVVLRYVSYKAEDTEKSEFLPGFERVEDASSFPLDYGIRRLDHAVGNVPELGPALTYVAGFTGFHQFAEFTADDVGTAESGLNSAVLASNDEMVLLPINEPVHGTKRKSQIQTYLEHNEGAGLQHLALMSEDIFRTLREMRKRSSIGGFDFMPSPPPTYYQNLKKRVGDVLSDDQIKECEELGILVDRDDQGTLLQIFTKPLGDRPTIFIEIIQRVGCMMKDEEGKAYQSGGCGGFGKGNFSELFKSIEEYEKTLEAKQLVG
Assay: affinity purification with mass spectrometry; total proteins of seedlings overexpressing AtHPPD-GFP, IP with anti-GFP agarose, LC-MS/MS; seedlings overexpressing GFP alone as control

binding: binds
B1: PUB11 (endogenous, Arabidopsis seedlings) (enzyme, UniProt Q8GUG9 1-612)
chain: MAGGIVSPASLLDLIADIVEIPLNTGMFKKDCADLTRRVCLLTHLLEEIRDSTPIDSAASSSSENDWWSDLVVGLQAAKRLLSTARFQARDSSDGAAKRISFQFQCVTWKLEKALSNLPYDLYDISDEVGEQVELARSQLRRAMQRYGSLNSNKFSSALSEPMERDGFSNVIKIKAEEKLESVSETLHFGEEEEKQSSPPLRRSSSISLAYYLSKDADTDRLDKMVNKNTDESKKSDKLTIPVDFLCPVSLELMKDPVIVATGQTYERAYIQRWIDCGNLTCPKTQQKLENFTLTPNYVLRSLISRWCAEHNIEQPAGYINGRTKNSGDMSVIRALVQRLSSRSTEDRRNAVSEIRSLSKRSTDNRILIAEAGAIPVLVNLLTSEDVATQENAITCVLNLSIYENNKELIMFAGAVTSIVQVLRAGTMEARENAAATLFSLSLADENKIIIGGSGAIPALVDLLENGTPRGKKDAATALFNLCIYHGNKGRAVRAGIVTALVKMLSDSTRHRMVDEALTILSVLANNQDAKSAIVKANTLPALIGILQTDQTRNRENAAAILLSLCKRDTEKLITIGRLGAVVPLMDLSKNGTERGKRKAISLLELLRKACQ

No constants are given. Whether binding was seen depends on the method and setting. In cells and extracts the contact can be indirect. A yes stands for co-enrichment or nearness to the bait. Other partners may have been found. Tags and fused reporters may be left off the sequences shown.
